Measured values taken from PMC7840056.

What was measured:
Test in all cases: two-hybrid; Bacterial Adenylate Cyclase Two-Hybrid (BACTH) in E. coli BTH101; SlyD fused to T25, Niu proteins fused to T18 (pUT18); LB with IPTG 10^-3 M overnight at 30°C; ß-galactosidase activity in Miller units
[1] = target: NiuDΔ5, C-terminally truncated NiuD fused to the T18 fragment (Helicobacter pylori (strain B128))
[2] = target: NiuDΔ9, C-terminally truncated NiuD fused to the T18 fragment (Helicobacter pylori (strain B128))
[3] = target: NiuDΔ7 Arg210 to Gly, fused to the T18 fragment (Helicobacter pylori (strain B128))
[4] = target: NiuDΔ10, C-terminally truncated NiuD fused to the T18 fragment (Helicobacter pylori (strain B128))
[5] = target: NiuDΔ11, C-terminally truncated NiuD fused to the T18 fragment (Helicobacter pylori (strain B128))
[6] = target: NiuDΔ12, C-terminally truncated NiuD fused to the T18 fragment (Helicobacter pylori (strain B128))
[7] = target: NiuDΔ7 Pro203 to Val, fused to the T18 fragment (Helicobacter pylori (strain B128))
[8] = target: NiuDΔ7 Trp209 to Phe, fused to the T18 fragment (Helicobacter pylori (strain B128))
[9] = target: NiuDΔ8, C-terminally truncated NiuD fused to the T18 fragment (Helicobacter pylori (strain B128))
[10] = target: NiuDΔ7 Trp209 to Gly, fused to the T18 fragment (Helicobacter pylori (strain B128))
[11] = target: NiuDΔ4, C-terminally truncated NiuD fused to the T18 fragment (Helicobacter pylori (strain B128))
[12] = target: NiuDΔ6, C-terminally truncated NiuD fused to the T18 fragment (Helicobacter pylori (strain B128))
[13] = target: NiuDΔ7, C-terminally truncated NiuD fused to the T18 fragment (Helicobacter pylori (strain B128))
[14] = target: NiuDΔ7 Arg208 to Gln, fused to the T18 fragment (Helicobacter pylori (strain B128))

B1: SlyD wild type fused to the T25 fragment of Bordetella pertussis adenylate cyclase (pNKT25) (protein, UniProt O25748 1-185)
chain: MQNHDLESIKQAALIEYEVREQGSSIVLDSNISKEPLEFIIGTNQIIAGLEKAVLKAQIGEWEEVVIAPEEAYGVYESSYLQEVPRDQFEGIELEKGMSVFGQTEDNQTIQAIIKDFSATHVMVDYNHPLAGKTLAFRFKVLGFREVSEEEILASHHGGGTGCCGGHGGHGGKKGGGCGCSCSHG
binding [1]: binds | binding [2]: binds | binding [3]: no binding | binding [4]: no binding | binding [5]: no binding | binding [6]: no binding | binding [7]: binds | binding [8]: binds | binding [9]: binds | binding [10]: binds | binding [11]: binds | binding [12]: binds | binding [13]: binds | binding [14]: no binding

Results are given in words; binding and its absence hold for the method and conditions named. For some assays here: A result given as binding can be weak or reduced; the word gives no strength. Sequences can lack the tags named with a protein.
